Here are results for 29 targets from the supplement of paper PMC12819154, “High-throughput peptide-centric local stability assay extends protein–ligand identification to membrane proteins, tissues and bacteria” (Nature Structural & Molecular Biology, 2025).

Protein sequences, listed by entry. Tags and fused reporters are not part of them. Lines headed by an entry give the natural chain unless they say otherwise; changes in a name come on top.
UniProt Q9GZN2: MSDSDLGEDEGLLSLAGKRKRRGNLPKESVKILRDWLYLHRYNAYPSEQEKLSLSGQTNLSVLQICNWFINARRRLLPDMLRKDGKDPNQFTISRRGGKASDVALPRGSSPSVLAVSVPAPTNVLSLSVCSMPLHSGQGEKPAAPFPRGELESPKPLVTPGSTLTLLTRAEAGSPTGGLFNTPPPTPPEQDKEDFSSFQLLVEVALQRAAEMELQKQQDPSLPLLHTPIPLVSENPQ
UniProt Q9C004: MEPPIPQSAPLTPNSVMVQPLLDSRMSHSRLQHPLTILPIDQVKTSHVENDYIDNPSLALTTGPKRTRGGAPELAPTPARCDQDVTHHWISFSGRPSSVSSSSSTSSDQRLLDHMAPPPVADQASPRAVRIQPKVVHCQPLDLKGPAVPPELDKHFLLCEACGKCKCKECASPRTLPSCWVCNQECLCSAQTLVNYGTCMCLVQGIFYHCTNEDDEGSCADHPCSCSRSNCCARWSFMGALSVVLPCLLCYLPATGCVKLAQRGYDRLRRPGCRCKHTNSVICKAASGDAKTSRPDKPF
UniProt Q9H019: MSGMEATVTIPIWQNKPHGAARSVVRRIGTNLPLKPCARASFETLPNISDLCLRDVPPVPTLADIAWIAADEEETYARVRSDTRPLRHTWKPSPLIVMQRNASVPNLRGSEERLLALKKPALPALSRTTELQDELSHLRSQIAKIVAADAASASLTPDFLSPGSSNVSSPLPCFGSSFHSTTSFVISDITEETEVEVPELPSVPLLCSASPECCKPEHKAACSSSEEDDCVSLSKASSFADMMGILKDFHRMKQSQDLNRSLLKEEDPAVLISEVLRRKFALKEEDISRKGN
UniProt Q9BW60: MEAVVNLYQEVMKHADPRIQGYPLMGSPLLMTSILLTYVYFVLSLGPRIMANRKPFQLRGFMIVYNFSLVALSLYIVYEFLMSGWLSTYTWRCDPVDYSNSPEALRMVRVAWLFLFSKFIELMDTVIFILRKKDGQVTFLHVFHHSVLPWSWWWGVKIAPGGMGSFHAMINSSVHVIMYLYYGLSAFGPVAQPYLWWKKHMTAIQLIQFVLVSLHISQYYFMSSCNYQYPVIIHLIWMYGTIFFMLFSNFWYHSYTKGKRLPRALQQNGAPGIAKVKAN
UniProt Q9GZN7, whole entry: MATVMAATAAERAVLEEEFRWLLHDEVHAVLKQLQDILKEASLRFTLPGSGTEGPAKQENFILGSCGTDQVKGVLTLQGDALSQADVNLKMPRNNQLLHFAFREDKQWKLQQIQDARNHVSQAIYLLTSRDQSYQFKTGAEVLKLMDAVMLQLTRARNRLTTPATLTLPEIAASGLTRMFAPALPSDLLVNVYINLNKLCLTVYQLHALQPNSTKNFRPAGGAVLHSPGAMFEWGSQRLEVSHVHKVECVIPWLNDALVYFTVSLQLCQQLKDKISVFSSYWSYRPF
UniProt Q9BXB4: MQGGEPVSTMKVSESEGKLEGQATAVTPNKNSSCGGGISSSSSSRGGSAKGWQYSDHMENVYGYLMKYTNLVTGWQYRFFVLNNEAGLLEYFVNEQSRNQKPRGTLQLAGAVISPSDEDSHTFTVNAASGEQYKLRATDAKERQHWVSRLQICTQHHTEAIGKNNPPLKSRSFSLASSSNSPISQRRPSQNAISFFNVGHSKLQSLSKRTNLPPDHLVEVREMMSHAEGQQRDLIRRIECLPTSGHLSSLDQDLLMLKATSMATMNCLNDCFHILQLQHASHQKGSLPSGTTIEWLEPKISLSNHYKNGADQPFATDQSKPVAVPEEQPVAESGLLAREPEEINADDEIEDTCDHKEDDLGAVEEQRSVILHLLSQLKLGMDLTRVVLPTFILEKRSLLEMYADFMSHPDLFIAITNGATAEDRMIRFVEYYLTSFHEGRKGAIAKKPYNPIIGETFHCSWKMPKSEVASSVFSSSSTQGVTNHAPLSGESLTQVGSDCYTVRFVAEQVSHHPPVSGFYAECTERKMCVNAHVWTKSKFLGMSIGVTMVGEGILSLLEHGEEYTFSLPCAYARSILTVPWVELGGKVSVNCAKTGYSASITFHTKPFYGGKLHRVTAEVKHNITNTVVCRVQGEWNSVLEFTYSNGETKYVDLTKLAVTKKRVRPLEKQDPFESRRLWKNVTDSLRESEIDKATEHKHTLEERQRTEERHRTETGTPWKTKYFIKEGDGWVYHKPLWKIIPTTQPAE
UniProt Q9BZI7: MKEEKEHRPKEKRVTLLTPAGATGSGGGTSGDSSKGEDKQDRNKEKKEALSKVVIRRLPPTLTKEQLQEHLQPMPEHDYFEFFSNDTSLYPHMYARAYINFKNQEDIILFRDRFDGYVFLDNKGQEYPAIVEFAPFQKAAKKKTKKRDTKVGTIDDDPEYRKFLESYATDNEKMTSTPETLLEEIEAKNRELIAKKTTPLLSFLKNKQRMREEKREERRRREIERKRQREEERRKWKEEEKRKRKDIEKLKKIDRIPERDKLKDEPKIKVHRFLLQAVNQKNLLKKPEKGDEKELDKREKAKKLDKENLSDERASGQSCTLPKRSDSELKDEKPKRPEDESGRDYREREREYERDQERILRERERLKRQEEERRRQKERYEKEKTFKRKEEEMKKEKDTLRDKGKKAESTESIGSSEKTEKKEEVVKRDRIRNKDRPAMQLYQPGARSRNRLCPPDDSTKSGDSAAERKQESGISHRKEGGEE
UniProt Q9H000: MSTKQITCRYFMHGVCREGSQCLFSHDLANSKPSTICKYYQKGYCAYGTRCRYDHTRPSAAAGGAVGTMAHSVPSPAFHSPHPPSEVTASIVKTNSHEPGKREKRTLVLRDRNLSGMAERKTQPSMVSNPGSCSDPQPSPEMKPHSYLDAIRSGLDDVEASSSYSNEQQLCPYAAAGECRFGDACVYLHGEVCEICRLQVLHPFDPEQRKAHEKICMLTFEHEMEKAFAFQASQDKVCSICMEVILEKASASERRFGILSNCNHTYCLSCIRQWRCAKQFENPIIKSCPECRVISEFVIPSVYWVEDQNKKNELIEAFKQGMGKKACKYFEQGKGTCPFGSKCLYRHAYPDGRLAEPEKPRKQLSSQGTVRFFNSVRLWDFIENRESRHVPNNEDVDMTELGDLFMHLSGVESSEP
UniProt Q9BV20: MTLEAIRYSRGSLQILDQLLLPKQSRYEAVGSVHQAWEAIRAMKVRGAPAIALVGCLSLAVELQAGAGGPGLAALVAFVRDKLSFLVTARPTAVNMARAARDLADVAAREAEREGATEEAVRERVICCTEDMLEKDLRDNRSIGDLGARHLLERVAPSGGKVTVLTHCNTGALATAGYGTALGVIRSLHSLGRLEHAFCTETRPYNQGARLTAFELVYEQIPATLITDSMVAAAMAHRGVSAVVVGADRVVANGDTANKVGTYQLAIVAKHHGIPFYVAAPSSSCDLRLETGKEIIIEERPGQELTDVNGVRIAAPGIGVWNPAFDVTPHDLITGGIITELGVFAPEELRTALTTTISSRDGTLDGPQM
UniProt Q9BWC9: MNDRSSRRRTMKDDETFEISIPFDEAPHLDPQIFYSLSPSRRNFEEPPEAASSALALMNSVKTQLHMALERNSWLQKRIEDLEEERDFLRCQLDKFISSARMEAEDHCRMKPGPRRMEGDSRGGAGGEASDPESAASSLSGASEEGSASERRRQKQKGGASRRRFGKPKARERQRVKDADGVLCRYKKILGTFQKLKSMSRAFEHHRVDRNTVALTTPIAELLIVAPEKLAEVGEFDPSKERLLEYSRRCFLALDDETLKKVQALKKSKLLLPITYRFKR
UniProt Q9GZZ1: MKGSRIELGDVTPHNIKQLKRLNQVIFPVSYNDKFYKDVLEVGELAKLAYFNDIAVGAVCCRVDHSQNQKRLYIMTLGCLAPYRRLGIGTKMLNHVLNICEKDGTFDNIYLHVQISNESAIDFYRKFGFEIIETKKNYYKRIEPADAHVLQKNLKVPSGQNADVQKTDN
UniProt Q9BYM8: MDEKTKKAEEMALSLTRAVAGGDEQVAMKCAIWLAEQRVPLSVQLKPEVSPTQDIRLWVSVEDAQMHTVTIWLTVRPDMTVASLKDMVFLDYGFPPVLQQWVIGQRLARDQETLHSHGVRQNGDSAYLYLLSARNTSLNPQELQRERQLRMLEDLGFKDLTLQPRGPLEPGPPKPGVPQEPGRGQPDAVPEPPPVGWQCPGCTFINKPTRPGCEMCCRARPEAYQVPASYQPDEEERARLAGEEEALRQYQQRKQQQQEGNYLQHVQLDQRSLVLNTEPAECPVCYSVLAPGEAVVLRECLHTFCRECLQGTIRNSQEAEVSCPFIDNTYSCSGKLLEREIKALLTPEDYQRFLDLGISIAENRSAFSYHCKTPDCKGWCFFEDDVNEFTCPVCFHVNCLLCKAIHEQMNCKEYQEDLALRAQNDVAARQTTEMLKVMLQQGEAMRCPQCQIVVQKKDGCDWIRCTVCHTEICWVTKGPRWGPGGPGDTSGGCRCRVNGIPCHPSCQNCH
UniProt Q9H0R6: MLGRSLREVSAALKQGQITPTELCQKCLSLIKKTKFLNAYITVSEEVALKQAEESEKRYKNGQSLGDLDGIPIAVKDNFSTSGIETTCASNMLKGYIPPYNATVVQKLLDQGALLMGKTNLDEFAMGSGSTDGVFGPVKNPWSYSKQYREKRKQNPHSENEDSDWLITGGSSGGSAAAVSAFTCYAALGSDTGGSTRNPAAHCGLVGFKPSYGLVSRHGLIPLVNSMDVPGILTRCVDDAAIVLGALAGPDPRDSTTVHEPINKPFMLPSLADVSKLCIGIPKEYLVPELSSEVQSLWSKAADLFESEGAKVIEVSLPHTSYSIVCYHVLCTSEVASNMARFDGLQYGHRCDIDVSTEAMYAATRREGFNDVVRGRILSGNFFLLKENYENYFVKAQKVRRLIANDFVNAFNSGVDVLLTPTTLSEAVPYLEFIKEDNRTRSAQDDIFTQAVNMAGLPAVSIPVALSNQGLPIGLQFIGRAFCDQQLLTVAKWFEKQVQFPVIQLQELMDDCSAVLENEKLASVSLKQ
UniProt Q9BVM2: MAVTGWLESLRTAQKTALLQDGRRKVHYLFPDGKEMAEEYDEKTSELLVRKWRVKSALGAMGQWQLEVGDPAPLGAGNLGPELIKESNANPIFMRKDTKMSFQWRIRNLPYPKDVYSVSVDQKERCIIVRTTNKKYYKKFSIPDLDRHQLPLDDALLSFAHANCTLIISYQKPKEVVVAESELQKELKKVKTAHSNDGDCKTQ
UniProt Q9H0A8, whole entry: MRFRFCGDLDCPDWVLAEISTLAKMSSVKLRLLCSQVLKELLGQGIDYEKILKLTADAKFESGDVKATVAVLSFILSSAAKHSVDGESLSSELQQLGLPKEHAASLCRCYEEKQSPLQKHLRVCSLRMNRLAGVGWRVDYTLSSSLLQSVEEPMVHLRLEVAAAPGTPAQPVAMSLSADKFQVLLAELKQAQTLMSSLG
UniProt Q9H115: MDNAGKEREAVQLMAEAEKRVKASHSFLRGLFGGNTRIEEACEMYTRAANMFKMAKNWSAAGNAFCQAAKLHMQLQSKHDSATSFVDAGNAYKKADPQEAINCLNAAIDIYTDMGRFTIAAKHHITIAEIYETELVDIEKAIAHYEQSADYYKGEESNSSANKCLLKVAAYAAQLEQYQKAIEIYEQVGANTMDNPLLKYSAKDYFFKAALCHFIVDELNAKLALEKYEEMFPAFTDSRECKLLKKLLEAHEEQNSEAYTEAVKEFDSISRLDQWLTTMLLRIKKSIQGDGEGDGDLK
UniProt Q9BV68: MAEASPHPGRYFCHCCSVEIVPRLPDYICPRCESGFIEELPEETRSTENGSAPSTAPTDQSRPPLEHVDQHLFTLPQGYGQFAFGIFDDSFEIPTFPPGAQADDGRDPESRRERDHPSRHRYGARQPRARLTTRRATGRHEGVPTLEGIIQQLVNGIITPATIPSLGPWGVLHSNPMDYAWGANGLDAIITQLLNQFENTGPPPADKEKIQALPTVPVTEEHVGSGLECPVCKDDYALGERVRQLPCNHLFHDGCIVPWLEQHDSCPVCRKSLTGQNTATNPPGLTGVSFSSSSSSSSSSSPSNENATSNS
UniProt Q9BVA1, whole entry: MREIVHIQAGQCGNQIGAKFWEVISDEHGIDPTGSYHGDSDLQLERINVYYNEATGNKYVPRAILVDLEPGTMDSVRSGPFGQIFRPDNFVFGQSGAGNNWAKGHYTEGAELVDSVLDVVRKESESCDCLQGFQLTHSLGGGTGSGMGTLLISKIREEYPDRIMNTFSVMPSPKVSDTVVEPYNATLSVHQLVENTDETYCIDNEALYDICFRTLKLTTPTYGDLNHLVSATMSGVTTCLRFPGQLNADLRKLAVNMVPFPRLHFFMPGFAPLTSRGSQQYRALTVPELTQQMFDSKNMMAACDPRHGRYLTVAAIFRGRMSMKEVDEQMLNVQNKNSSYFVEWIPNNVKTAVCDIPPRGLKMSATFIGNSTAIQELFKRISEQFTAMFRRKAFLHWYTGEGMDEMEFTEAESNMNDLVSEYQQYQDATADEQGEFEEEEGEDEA
UniProt Q9BV86: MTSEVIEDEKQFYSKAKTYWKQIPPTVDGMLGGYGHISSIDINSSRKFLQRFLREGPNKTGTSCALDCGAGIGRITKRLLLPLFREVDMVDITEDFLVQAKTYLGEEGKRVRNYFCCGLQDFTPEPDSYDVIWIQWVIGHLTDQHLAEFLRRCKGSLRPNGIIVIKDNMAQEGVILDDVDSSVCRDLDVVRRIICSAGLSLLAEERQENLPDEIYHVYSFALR

The list shows a part of the results. Most values lie at the level of the controls, where differences are scatter.

Compound in the test: Cc1nc(Nc2ncc(C(=O)Nc3c(C)cccc3Cl)s2)cc(N2CCN(CCO)CC2)n1 [dasatinib]
In words: log2 fold change of tryptic peptide abundance, ligand vs vehicle (limited proteolysis) (log2 ratio); higher = more trypsin-susceptible (destabilized). As to conditions: ligand concentration: 5 uM; sample: K562 cleared lysate.
Turning to “UniProt Q9GZN2 (peptide sequence: YNAYPSEQEK, peptide start residue: 188)”, the log2 fold change was 0.0537. “SPRY4 (peptide sequence: LQHPLTILPIDQVK, peptide start residue: 31) (UniProt Q9C004)”: the log2 fold change is 0.059. The figure for “UniProt Q9BV29 (peptide sequence: KECWDRFLQEK, peptide start residue: 109)” is 0.136. Then “UniProt Q9H019 (peptide sequence: IGTNLPLKPCAR, peptide start residue: 28)”, with -0.256; and “WNK3 (peptide sequence: FKEEAEMLK, peptide start residue: 265) (UniProt Q9BYP7)”, with -0.198; and “ELOVL1 (peptide sequence: ALQQNGAPGIAK, peptide start residue: 264) (UniProt Q9BW60)”, with 0.035.

Consider “ROGDI (peptide sequence: NFRPAGGAVLHSPGAMFEWGSQR, peptide start residue: 216) (UniProt Q9GZN7)”, for which the log2 fold change came out at 0.313.

For “MRPL20 (peptide sequence: ITAASQEHGLK, peptide start residue: 72) (UniProt Q9BYC9)”, the log2 fold change is -0.777.

For “OSBPL11 (peptide sequence: VVLPTFILEKR, peptide start residue: 386) (UniProt Q9BXB4)”, the log2 fold change was -0.426. Then “UPF3B (peptide sequence: NQEDIILFR, peptide start residue: 103) (UniProt Q9BZI7)”, with -0.657. As for “MKRN2 (peptide sequence: QLSSQGTVR, peptide start residue: 363) (UniProt Q9H000)”, the log2 fold change is -0.28.

Consider “MRI1 (peptide sequence: GVSAVVVGADRVVANGDTANK, peptide start residue: 239) (UniProt Q9BV20)”, for which the log2 fold change was determined as 0.416. The figure for “UniProt Q9BWC9 (peptide sequence: MEAEDHCR, peptide start residue: 102)” is 0.311. The figure for “C11orf54 (peptide sequence: ETHSIGRD, peptide start residue: 308) (UniProt Q9H0W9)” is 0.0311; for “UniProt Q9GZZ1 (peptide sequence: FGFEIIETK, peptide start residue: 127)” it is 0.368.

Take “RBCK1 (peptide sequence: MLEDLGFK, peptide start residue: 151) (UniProt Q9BYM8)”: the log2 fold change was found to be 0.0464. Then “QRSL1 (peptide sequence: LLDQGALLMGK, peptide start residue: 108) (UniProt Q9H0R6)”, with 0.199; and “DPCD (peptide sequence: ESNANPIFMR, peptide start residue: 86) (UniProt Q9BVM2)”, with -0.147.

For “COMMD4 (peptide sequence: EHAASLCRCYEEK, peptide start residue: 101) (UniProt Q9H0A8)”, the log2 fold change worked out at 0.174.

“UniProt Q9BUV8 (peptide sequence: RKEEPPQPQLANGALK, peptide start residue: 6)”: the log2 fold change is 0.0784.

As for “MRPL1 (peptide sequence: NEESEKEDA, peptide start residue: 317) (UniProt Q9BYD6)”, the log2 fold change came to 0.112. Then “UniProt Q9BYG4 (peptide sequence: VTPHGLEKVPGIFISR, peptide start residue: 181)”, with -0.0474; and “UniProt Q9BXC9 (peptide sequence: AELASPLNEADGHR, peptide start residue: 361)”, with 0.629; and “UniProt Q9H115 (peptide sequence: YSAKDYFFK, peptide start residue: 200)”, with -0.897. The figure for “RNF126 (peptide sequence: ERDHPSR, peptide start residue: 113) (UniProt Q9BV68)” is -0.105; for “PANK2 (peptide sequence: ASSASVPAVGASAEGTRR, peptide start residue: 167) (UniProt Q9BZ23)” it is 0.223.

Turning to “UniProt Q9BVA1 (peptide sequence: INVYYNEATGNKYVPR, peptide start residue: 47)”, the log2 fold change was 0.0812.

In the case of “QTRT1 (peptide sequence: ATCLEEMTKR, peptide start residue: 211) (UniProt Q9BXR0)”, the log2 fold change is -0.347.

Regarding “UniProt Q9BV86 (peptide sequence: LLLPLFR, peptide start residue: 79)”, the log2 fold change was -0.206.
